Measurements reported in paper PMC8977143.
Results are given in words; binding and its absence hold for the method and conditions named. Binding seen in cells or lysates may run through a third protein. Some binding calls cover weakened binding; strength is not graded here.

The chains behind the UniProt entries cited, without tags or fusion partners. Residues count along the entry.
UniProt P07996, residues 19-1170: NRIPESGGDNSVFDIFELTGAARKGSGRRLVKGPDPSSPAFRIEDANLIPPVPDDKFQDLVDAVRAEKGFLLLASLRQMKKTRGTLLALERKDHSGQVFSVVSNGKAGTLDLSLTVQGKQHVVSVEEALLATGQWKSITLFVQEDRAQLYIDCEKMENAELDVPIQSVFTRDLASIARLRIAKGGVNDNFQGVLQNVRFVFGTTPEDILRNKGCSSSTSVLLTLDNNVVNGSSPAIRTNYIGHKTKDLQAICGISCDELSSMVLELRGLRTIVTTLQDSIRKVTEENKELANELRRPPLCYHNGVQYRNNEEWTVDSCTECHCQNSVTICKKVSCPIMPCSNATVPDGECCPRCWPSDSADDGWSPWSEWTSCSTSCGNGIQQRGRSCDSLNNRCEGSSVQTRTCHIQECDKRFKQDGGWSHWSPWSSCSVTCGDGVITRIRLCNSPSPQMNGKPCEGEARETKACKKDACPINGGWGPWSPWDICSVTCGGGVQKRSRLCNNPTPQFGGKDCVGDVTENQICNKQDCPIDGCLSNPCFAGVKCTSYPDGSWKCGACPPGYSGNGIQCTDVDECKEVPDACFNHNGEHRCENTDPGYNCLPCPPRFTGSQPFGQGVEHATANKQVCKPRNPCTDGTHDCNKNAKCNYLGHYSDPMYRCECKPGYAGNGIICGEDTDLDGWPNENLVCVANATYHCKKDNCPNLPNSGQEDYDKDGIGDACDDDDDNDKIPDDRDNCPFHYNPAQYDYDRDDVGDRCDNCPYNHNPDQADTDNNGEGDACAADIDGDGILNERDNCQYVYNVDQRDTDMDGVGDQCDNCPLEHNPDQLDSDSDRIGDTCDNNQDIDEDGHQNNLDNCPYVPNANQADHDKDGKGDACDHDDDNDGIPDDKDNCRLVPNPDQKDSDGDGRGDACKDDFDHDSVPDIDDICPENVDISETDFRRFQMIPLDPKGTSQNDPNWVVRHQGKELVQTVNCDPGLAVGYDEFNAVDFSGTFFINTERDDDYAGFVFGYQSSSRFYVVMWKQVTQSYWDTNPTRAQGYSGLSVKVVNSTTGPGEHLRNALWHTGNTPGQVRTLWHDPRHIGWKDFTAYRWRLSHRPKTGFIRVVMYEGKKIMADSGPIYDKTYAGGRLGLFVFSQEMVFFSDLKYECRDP
UniProt P29279, residues 27-349: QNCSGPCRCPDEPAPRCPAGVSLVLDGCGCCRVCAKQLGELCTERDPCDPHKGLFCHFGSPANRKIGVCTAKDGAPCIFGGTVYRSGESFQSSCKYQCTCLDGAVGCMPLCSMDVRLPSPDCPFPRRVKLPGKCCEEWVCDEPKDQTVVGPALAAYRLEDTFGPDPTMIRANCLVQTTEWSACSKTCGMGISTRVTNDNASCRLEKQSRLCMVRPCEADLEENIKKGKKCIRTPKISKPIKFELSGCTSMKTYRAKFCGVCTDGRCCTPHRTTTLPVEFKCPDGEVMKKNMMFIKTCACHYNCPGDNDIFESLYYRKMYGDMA

Target: thrombospondin-1 (TSP1), endogenous in human dermal fibroblasts (human (endogenous in HDF)) (UniProt P07996)
Test: proximity ligation; Duolink in situ proximity ligation in human dermal fibroblasts (HDF), antibodies to CCN2 and TSP1 (C9); fluorescent area per cell against single antibody stainings

- binding: binds
Substance: cell communication network 2 (CCN2), endogenous in human dermal fibroblasts (from UniProt P29279 27-349)
